The target of the experiment is T1, LexA-(p38/JTV-1) (human, UniProt Q13155 1-312, limits assumed).
T1 construct: Yeast two-hybrid bait expressed in S. cerevisiae EGY48; also called fusion protein of p38/JTV-1 and LexA; pLexA-(p38/JTV-1); not shown: LexA protein encoded by pLex202 vector (Invitrogen)
T1 sequence: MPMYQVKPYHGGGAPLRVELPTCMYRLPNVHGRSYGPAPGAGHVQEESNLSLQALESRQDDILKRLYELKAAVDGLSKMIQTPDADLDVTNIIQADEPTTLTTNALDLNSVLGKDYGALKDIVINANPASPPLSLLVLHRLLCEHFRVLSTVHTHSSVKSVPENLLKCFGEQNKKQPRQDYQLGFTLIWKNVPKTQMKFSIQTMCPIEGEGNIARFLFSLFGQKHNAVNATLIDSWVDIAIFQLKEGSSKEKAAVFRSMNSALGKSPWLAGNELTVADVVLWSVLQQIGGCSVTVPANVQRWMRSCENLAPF
The experiment is described as follows: yeast two-hybrid (LexA system), blue colony on X-gal. An excerpt: Using the recombinant plasmids constructed in the above, Saccaromyces cerevisiae EGY48 (Clontech laboratories Inc. Estojak et al. (1995)) having a lacZ plasmid (p8op-LacZ) as a probe gene was transformed according to the known methods (Golemis, E. A., et al., In Current Protocols in Molecular Biology, 1994).

B1: B42-FBP (FUSE-binding protein, amino acids 564 to 645) (other, human, UniProt Q96AE4 564-644, looked up)
chain: QTNGQGDQQNPAPAGQVDYTKAWEEYYKKMGQAVPAPTGAPPGGQPDYSAAWAEYYRQQAAYYAQTSPQGMPQHPPAPQGQ
notes: range 564-645; Yeast two-hybrid prey; also called pB42-FBP; not shown: B42 protein from pB42 vector (Invitrogen)
B1: the binding result is “binds”.
